This is one part of the list.
Experiments:
Assay in all cases: log2 fold change, soluble protein after heating vs DMSO (PISA); higher = thermal stabilisation; K562 lysate, 10 uM; active = over 0.2 and 3.5 SD of the protein, either way, in both replicates (recomputed)
lapatinib = compound: CS(=O)(=O)CCNCc1ccc(-c2ccc3ncnc(Nc4ccc(OCc5cccc(F)c5)c(Cl)c4)c3c2)o1 [lapatinib]
Outline: (§1)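 Values give the log-two fold change in thermal stability against solvent controls, from duplicates. Crude K562 extract at 1 mg/mL protein, made by dounce homogenisation in PBS pH 7.4 with 1 mM MgCl2, was treated with 10 μM compound for 30 min. After 3 min heating across 48°C-58°C, aliquots were pooled, adjusted to 0.5% NP-40 at 4°C and centrifuged at 21,000xg for 90 min. The supernatant was measured by TMTpro 16plex LC-MS/MS with channel sums equalised.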

Amino acid sequences for entries named in this document (tags omitted). A change or cut given only in a name is not applied to a line headed by its entry.
UniProt Q9UHD8: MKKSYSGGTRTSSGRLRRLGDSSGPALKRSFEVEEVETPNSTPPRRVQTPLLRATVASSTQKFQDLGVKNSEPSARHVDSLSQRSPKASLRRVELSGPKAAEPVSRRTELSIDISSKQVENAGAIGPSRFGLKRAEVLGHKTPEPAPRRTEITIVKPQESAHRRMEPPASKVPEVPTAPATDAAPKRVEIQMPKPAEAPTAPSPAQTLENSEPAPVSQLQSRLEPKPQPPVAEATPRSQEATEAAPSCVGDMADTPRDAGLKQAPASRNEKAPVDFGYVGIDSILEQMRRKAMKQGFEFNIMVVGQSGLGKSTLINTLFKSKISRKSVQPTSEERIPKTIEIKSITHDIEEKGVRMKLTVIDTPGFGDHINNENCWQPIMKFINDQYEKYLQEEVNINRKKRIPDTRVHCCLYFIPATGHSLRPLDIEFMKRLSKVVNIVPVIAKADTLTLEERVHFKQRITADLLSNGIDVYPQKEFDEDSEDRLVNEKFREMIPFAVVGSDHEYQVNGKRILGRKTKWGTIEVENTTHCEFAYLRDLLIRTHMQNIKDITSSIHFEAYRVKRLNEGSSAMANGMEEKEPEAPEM
UniProt O94885: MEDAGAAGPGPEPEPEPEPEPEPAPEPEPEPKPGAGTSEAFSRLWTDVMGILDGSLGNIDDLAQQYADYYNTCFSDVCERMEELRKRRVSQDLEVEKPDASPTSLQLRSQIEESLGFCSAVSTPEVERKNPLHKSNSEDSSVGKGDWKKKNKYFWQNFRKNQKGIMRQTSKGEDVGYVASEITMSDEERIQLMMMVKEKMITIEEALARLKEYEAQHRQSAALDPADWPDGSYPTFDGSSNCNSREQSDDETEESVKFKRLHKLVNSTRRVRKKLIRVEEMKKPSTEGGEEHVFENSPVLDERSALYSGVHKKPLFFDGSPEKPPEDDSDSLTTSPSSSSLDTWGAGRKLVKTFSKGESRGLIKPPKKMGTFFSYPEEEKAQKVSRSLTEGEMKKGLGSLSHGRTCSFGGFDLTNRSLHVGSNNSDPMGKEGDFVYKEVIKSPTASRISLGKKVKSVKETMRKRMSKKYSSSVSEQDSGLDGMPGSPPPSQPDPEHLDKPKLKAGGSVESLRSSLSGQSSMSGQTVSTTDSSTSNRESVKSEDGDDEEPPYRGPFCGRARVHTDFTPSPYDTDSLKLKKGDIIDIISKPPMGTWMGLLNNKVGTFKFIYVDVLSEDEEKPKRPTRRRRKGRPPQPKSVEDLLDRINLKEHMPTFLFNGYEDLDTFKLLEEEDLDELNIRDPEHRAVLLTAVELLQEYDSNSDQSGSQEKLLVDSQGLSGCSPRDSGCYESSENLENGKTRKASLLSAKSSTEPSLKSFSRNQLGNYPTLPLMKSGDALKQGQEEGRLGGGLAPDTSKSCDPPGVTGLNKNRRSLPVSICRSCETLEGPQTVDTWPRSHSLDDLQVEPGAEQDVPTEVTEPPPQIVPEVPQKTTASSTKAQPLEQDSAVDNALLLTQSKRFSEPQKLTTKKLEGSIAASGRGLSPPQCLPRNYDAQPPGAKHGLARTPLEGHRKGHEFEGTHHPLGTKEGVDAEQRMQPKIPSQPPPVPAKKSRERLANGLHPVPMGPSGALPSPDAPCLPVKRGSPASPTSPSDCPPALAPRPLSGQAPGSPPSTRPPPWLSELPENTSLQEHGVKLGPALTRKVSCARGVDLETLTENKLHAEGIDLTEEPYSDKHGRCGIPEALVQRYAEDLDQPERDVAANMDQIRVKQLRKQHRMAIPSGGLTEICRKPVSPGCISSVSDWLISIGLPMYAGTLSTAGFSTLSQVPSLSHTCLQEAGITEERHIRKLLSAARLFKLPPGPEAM
UniProt O15126: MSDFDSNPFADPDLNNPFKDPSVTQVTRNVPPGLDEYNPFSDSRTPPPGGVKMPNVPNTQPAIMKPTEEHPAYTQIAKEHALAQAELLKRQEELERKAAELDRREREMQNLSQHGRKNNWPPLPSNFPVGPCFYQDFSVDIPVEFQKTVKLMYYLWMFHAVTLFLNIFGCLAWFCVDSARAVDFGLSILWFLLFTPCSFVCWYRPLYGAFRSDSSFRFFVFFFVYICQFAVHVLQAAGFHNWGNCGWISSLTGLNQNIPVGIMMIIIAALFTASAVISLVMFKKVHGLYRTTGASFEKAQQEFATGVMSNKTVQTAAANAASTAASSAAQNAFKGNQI
UniProt Q5VUM1: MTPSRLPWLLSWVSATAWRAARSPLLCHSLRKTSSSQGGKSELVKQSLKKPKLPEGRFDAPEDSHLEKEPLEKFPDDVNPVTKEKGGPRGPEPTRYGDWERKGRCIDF
UniProt Q9H7N4: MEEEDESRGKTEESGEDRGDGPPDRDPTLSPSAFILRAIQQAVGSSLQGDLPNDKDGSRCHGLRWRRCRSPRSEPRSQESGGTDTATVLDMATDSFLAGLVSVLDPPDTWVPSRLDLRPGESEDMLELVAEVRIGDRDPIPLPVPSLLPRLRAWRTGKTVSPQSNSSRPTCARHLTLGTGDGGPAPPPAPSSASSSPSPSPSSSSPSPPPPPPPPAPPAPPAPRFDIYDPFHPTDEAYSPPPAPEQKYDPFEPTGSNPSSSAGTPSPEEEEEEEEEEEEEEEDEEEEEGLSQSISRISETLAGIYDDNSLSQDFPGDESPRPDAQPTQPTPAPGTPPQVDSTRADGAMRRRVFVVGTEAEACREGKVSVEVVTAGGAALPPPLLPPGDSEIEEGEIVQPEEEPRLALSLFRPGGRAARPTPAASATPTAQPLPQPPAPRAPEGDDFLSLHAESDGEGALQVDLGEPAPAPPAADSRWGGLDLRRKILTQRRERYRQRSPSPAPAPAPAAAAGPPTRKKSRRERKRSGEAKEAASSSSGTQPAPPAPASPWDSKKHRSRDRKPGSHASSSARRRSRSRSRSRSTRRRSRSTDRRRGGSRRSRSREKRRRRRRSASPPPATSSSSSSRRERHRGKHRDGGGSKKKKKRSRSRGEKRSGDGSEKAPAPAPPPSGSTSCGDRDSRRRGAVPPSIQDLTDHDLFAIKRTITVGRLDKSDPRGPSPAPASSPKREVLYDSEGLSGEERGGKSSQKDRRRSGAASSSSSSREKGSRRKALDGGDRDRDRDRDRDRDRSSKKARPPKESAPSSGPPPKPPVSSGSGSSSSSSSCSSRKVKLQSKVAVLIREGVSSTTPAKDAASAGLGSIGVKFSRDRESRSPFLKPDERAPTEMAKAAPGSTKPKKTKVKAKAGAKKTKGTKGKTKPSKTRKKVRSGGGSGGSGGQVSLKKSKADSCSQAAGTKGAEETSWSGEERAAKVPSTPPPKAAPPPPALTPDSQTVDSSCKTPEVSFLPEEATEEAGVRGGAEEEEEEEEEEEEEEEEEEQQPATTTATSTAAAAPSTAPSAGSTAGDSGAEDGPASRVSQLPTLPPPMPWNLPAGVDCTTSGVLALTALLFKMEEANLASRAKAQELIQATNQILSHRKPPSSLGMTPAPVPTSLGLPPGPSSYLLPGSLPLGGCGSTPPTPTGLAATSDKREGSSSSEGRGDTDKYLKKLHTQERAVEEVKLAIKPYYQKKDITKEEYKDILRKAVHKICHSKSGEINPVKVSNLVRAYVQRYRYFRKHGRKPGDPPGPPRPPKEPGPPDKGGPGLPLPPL
UniProt Q9H0E3: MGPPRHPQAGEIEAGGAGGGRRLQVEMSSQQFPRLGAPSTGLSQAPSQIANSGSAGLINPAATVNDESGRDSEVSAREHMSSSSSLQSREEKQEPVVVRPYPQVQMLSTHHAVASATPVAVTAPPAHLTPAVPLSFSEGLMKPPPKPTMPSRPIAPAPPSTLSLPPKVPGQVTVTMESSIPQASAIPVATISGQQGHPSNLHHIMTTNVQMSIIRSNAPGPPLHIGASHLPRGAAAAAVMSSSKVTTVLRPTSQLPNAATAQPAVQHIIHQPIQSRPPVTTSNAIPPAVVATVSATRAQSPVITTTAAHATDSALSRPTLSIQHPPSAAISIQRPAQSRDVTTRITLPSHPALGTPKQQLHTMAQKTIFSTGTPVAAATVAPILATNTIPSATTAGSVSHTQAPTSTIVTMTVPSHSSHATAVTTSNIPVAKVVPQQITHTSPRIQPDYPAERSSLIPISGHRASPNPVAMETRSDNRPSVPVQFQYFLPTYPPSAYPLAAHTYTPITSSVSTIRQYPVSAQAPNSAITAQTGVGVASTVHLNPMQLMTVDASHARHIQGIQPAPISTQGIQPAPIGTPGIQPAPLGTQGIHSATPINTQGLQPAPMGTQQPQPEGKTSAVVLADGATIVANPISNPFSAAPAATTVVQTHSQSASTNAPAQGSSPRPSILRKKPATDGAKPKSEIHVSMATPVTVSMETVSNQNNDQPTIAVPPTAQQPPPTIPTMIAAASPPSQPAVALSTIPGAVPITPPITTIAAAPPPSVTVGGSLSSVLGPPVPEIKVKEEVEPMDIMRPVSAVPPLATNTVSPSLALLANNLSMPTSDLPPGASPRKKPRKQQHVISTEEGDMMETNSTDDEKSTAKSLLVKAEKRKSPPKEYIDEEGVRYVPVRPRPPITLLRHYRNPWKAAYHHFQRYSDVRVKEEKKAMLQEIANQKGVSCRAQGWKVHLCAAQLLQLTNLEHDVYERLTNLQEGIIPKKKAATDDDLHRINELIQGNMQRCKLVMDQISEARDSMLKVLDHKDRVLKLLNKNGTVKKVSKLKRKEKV
UniProt Q9UHR5: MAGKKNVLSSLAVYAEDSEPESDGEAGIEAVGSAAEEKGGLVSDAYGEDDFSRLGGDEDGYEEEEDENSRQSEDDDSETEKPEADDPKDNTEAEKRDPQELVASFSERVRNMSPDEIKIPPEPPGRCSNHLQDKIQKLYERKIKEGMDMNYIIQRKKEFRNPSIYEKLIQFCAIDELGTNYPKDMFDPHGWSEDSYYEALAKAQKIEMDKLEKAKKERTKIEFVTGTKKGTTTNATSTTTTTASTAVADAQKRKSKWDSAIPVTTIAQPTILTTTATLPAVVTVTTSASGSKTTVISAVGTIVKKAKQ
UniProt P63302, whole entry, looked up: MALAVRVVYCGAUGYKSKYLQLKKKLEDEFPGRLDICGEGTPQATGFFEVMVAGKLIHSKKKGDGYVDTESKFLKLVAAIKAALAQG
UniProt Q9C0D9, whole entry, looked up: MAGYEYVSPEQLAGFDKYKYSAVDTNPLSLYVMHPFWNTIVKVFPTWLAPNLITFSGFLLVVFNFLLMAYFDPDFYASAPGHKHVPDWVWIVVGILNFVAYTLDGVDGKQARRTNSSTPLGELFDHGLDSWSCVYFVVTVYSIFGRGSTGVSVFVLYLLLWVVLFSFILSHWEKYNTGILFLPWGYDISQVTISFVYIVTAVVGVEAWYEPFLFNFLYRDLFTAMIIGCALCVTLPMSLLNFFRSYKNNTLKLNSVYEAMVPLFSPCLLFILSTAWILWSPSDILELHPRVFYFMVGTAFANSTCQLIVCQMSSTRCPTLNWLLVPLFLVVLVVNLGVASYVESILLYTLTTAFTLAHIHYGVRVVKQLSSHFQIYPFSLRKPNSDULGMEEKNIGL
UniProt Q16181: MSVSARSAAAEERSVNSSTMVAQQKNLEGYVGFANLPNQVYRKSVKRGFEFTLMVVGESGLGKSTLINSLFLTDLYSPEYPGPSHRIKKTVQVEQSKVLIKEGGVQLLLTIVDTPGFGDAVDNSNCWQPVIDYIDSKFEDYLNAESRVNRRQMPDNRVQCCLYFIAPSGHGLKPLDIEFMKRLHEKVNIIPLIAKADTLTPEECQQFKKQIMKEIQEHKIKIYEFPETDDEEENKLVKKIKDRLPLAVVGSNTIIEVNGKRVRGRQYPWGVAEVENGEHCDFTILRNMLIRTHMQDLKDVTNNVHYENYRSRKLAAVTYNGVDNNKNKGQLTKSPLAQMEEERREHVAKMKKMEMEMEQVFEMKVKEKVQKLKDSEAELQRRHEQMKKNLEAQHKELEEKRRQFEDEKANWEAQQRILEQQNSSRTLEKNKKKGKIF
UniProt Q8WWX9, whole entry, looked up: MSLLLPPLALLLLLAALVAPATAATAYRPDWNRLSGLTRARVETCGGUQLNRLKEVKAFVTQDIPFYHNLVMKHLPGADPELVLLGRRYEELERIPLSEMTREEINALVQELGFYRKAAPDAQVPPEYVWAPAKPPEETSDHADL

pictilisib = compound: CS(=O)(=O)N1CCN(Cc2cc3nc(-c4cccc5[nH]ncc45)nc(N4CCOCC4)c3s2)CC1 [pictilisib]
Outline: as §1

crizotinib = compound: C[C@@H](Oc1cc(-c2cnn(C3CCNCC3)c2)cnc1N)c1c(Cl)ccc(F)c1Cl [crizotinib]
Outline: as §1

[1] = compound: C[C@H](C1=CC=C(C=C1)C(=O)NC2=C3C=CNC3=NC=C2)N
Outline: as §1

duvelisib = compound: C[C@H](Nc1ncnc2nc[nH]c12)c1cc2cccc(Cl)c2c(=O)n1-c1ccccc1 [duvelisib]
Outline: as §1

gandotinib = compound: Cc1cc(Nc2cc(CN3CCOCC3)c3nc(C)c(Cc4ccc(Cl)cc4F)n3n2)n[nH]1 [gandotinib]
Outline: as §1

tozasertib = compound: Cc1cc(Nc2cc(N3CCN(C)CC3)nc(Sc3ccc(NC(=O)C4CC4)cc3)n2)n[nH]1 [tozasertib]
Outline: as §1

doramapimod = compound: Cc1ccc(-n2nc(C(C)(C)C)cc2NC(=O)Nc2ccc(OCCN3CCOCC3)c3ccccc23)cc1 [doramapimod]
Outline: as §1

bafetinib = compound: Cc1ccc(NC(=O)c2ccc(CN3CC[C@H](N(C)C)C3)c(C(F)(F)F)c2)cc1Nc1nccc(-c2cncnc2)n1 [bafetinib]
Outline: as §1

[2] = compound: Cc1cccc(CC(=O)N2CCc3c2ccc(-c2cn(C)c4ncnc(N)c24)c3F)n1
Outline: as §1

nilotinib = compound: Cc1cn(-c2cc(NC(=O)c3ccc(C)c(Nc4nccc(-c5cccnc5)n4)c3)cc(C(F)(F)F)c2)cn1 [nilotinib]
Outline: as §1

[3] = compound: Cc1nc(Nc2n[nH]c3c2CN(C(=O)N[C@H](CN(C)C)c2ccccc2)C3(C)C)c2sccc2n1
Outline: as §1

dasatinib = compound: Cc1nc(Nc2ncc(C(=O)Nc3c(C)cccc3Cl)s2)cc(N2CCN(CCO)CC2)n1 [dasatinib]
Outline: as §1

[4] = compound: Cc1ncc(-c2ccnc(Nc3ccc(S(C)(=O)=O)cc3)n2)n1C(C)C
Outline: as §1

[5] = compound: Cn1cc(-c2ccc3c(c2)CCN3C(=O)Cc2cccc(C(F)(F)F)c2)c2c(N)ncnc21
Outline: as §1

quisinostat = compound: Cn1cc(CNCC2CCN(c3ncc(C(=O)NO)cn3)CC2)c2ccccc21 [quisinostat]
Outline: as §1

tipifarnib = compound: Cn1cncc1[C@@](N)(c1ccc(Cl)cc1)c1ccc2c(c1)c(-c1cccc(Cl)c1)cc(=O)n2C [tipifarnib]
Outline: as §1

[6] = compound: NC(=O)Nc1cc(-c2cccc(F)c2)sc1C(=O)N[C@H]1CCCNC1
Outline: as §1

[7] = compound: NC(=O)c1cnc(N[C@@H]2CCCC[C@@H]2N)nc1Nc1cccc(-n2nccn2)c1
Outline: as §1

[8] = compound: NC1(c2ccc(-c3nc4ccn5c(=O)[nH]nc5c4cc3-c3ccccc3)cc2)CCC1
Outline: as §1

Measured: log2 fold change

SEPTIN9 (UniProt Q9UHD8)
inactive: lapatinib 0 | pictilisib -0.011 | crizotinib 0.015 | [1] -0.197 | duvelisib 0.003 | gandotinib 0.069 | tozasertib -0.02 | doramapimod 0.009 | bafetinib -0.034 | [2] 0.074 | nilotinib 0.001 | [3] -0.011 | dasatinib -0.01 | [4] -0.008 | [5] 0.001 | quisinostat -0.016 | tipifarnib 0.023 | [6] 0.015 | [7] -0.01 | [8] 0.018

SASH1 (UniProt O94885)
inactive: lapatinib -0.007 | pictilisib 0.128 | crizotinib 0.029 | [1] 0.145 | duvelisib 0.024 | gandotinib -0.077 | tozasertib 0.011 | doramapimod -0.037 | bafetinib -0.071 | [2] 0.004 | nilotinib 0.036 | [3] -0.078 | dasatinib 0.068 | [4] -0.029 | [5] -0.014 | quisinostat 0.011 | tipifarnib -0.026 | [6] -0.004 | [7] -0.057 | [8] 0.06

SCAMP1 (UniProt O15126)
inactive: lapatinib -0.02 | pictilisib -0.079 | crizotinib -0.012 | [1] 0.059 | duvelisib 0.022 | gandotinib 0.06 | tozasertib -0.024 | doramapimod -0.004 | bafetinib -0.038 | [2] 0.033 | nilotinib -0.037 | [3] -0.003 | dasatinib 0.013 | [4] -0.038 | [5] -0.03 | quisinostat -0.034 | tipifarnib -0.012 | [6] 0.032 | [7] 0.001 | [8] -0.063

SDHAF4 (UniProt Q5VUM1)
inactive: lapatinib 0.052 | pictilisib 0.012 | crizotinib 0.092 | [1] 0.004 | duvelisib 0.04 | gandotinib 0 | tozasertib -0.021 | doramapimod -0.105 | bafetinib -0.03 | [2] 0.054 | dasatinib 0.023 | [5] -0.017 | quisinostat 0.098 | [6] -0.085 | [7] 0.001 | [8] -0.051

SCAF1 (UniProt Q9H7N4)
inactive: lapatinib -0.06 | pictilisib -0.107 | crizotinib -0.011 | [1] 0.017 | duvelisib -0.337 | gandotinib -0.074 | tozasertib -0.023 | doramapimod 0.052 | bafetinib -0.27 | [2] -0.096 | nilotinib -0.053 | [3] 0.115 | dasatinib -0.018 | [4] -0.13 | [5] -0.042 | quisinostat -0.019 | tipifarnib -0.06 | [6] -0.028 | [7] -0.014 | [8] 0.1

Reprinted from the results shown (two entries):
SDHAF4 (UniProt Q5VUM1)
inactive: lapatinib 0.052 | pictilisib 0.012 | crizotinib 0.092 | [1] 0.004 | duvelisib 0.04 | gandotinib 0 | tozasertib -0.021 | doramapimod -0.105 | bafetinib -0.03 | [2] 0.054 | dasatinib 0.023 | [5] -0.017 | quisinostat 0.098 | [6] -0.085 | [7] 0.001 | [8] -0.051

SCAF1 (UniProt Q9H7N4)
inactive: lapatinib -0.06 | pictilisib -0.107 | crizotinib -0.011 | [1] 0.017 | duvelisib -0.337 | gandotinib -0.074 | tozasertib -0.023 | doramapimod 0.052 | bafetinib -0.27 | [2] -0.096 | nilotinib -0.053 | [3] 0.115 | dasatinib -0.018 | [4] -0.13 | [5] -0.042 | quisinostat -0.019 | tipifarnib -0.06 | [6] -0.028 | [7] -0.014 | [8] 0.1

Later entries

SATB2 (UniProt Q9UPW6)
inactive: lapatinib -0.009 | crizotinib 0.009 | [1] 0.042 | duvelisib 0.03 | gandotinib -0.039 | tozasertib -0.008 | doramapimod 0.002 | [2] -0.008 | nilotinib -0.08 | [3] -0.02 | dasatinib 0.041 | [4] -0.005 | [5] 0.013 | quisinostat -0.06 | tipifarnib 0.009 | [6] 0.018 | [7] 0.031 | [8] 0

SAP130 isoform 3 (UniProt Q9H0E3)
inactive: lapatinib 0.045 | crizotinib -0.03 | [1] 0.034 | duvelisib 0.057 | gandotinib 0.131 | tozasertib -0.087 | doramapimod 0.057 | [2] -0.032 | dasatinib 0.014 | [5] 0.014 | quisinostat -0.144 | [6] 0.076 | [7] 0.038 | [8] 0.03

SAP30BP (UniProt Q9UHR5)
inactive: lapatinib -0.011 | pictilisib -0.01 | crizotinib 0.013 | [1] -0.065 | duvelisib 0.013 | gandotinib 0.102 | tozasertib 0.058 | doramapimod -0.022 | bafetinib 0.02 | [2] 0.04 | nilotinib -0.017 | [3] 0.022 | dasatinib 0.011 | [4] -0.016 | [5] -0.008 | quisinostat -0.032 | tipifarnib -0.028 | [6] -0.002 | [7] 0.005 | [8] -0.019

SELENOW (UniProt P63302)
inactive: lapatinib -0.038 | crizotinib 0.027 | [1] 0.056 | gandotinib 0.148 | doramapimod -0.06 | [2] -0.05 | quisinostat 0.128 | [6] -0.051 | [7] 0.048

SELENOI (UniProt Q9C0D9)
inactive: lapatinib -0.077 | pictilisib 0.114 | crizotinib -0.055 | duvelisib -0.126 | tozasertib -0.004 | doramapimod -0.149 | bafetinib 0.05 | dasatinib -0.093 | [5] -0.085 | quisinostat 0.055 | [6] 0.113 | [7] 0.024 | [8] 0.115

SEPTIN7 (UniProt Q16181)
inactive: lapatinib -0.003 | pictilisib 0.004 | crizotinib 0.007 | [1] 0.106 | duvelisib 0.009 | gandotinib -0.037 | tozasertib 0.002 | doramapimod 0.041 | bafetinib 0.056 | [2] -0.06 | nilotinib -0.001 | [3] -0.024 | dasatinib -0.011 | [4] -0.041 | [5] 0.021 | quisinostat -0.04 | tipifarnib 0 | [6] 0.003 | [7] 0.001 | [8] 0.002

SELENOM (UniProt Q8WWX9)
inactive: lapatinib 0.081 | crizotinib 0.079 | doramapimod -0.032 | quisinostat 0.008 | [6] 0.008 | [7] -0.087

Source: the supplement of paper PMC10849652
